Experimental data reported in article doi:10.1101/2024.02.23.581834.
No constants are given. Whether binding was seen depends on the method and setting. In cells and extracts the contact can be indirect. Some results given as binding are weak or reduced against the parent protein; the word gives no strength.

Amino acid sequences for entries named in this document (tags omitted).
UniProt O95136: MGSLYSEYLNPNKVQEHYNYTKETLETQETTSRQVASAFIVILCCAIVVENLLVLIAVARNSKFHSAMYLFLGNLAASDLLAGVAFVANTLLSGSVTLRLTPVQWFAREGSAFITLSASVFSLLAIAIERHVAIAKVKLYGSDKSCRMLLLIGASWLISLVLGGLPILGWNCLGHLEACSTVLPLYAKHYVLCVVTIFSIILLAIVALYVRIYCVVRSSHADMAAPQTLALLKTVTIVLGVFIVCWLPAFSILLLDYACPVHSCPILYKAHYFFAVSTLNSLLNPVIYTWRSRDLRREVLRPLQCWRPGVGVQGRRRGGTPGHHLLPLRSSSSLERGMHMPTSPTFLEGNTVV
UniProt P32121: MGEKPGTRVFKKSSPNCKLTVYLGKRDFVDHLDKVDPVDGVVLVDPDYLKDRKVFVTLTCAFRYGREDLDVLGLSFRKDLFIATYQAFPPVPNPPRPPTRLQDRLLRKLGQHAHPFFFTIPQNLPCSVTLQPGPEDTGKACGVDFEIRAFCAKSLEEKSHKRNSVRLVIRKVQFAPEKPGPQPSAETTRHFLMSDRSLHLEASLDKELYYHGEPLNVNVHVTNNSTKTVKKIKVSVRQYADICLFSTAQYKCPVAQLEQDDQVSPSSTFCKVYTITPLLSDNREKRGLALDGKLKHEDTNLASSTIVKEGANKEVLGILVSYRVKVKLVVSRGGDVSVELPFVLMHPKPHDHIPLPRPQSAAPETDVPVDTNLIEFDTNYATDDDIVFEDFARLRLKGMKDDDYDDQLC

Target: C-terminally LgBiT-fused human sphingosine-1-phosphate receptor 2 (S1PR2-LgBiT) (human) (UniProt O95136)
Experiment: split reporter

binding: binds
Substance: N-terminally SmBiT-fused human β-arrestin 2 (SmBiT-ARRB2) (from UniProt P32121 1-409)
